The nature of this series: soluble on expression in E. coli; label from the status in PepcDB or PDB records.

Consider 20 sequences from the DeepSol protein solubility set.

For “MTEYDKFAEQLRHPDNPIVFLEVTAGGAPIGTIVIELFADVTPRTAENFRQFCTGEYKKDGVPNGYKNCTFHRVIKDFMIQGGDFCNGDGTGLMSIYGSKFRDENFELKHIGPGMLSMANAGSDTNGCQFFITCAKTDFLDNKHVVFGRVLDGMLTVRKIENVPTGANNKPKLPIVVVQCGQL”, the “soluble on expression in E. coli” value is reported as “not soluble”. With “MYALLDCNNFFVSCERVFDPSLRNRPVVVLSNNDGCIIARSNEAKALGIGMGQPFFKVQDLIRRHNVAFFSSNFILYGDMSRRIMSLVSELVPRMSIYSIDECFMDLRGVKDYMSLCHMIVDRVRQCTGIPVSIGVADTMTLSKVADKYAKRYAGYKGVCAIDSEEKRRKALQTFDVSDVWGIGRRLSRKLYYYGINTAADFASMREGRVYRLAGTSGVRTWQELRGEACKEMKLPQPRQSVCTTRSFGHPCRDFDSLLRHLAVFADSCCTKIREEKSRARRLSIFISCSRFDQENDYSGRNEMLLPVATSDPSELIPKIRTLLQEIYRPNLPYKQAGVILSDLVAEAYQLNLFDPIDRMRQERFLSSVDAIRQRFGRDSLTVATQETEAIASVSSIKHRSRRYTTDMNEVIDVVLPDQRKSGEKKSTINSR” the entry was “not soluble”; with “LRLGDRVLVGGTKTGVVRYVGETDFAKGEWCGVELDEPLGKNDGAVAGTRYFQCPPKFGLFAPIHKVIRIG”, “soluble”. The same measure for “MSMLRRPLTQLELCEDDIQWLTDQLNKRVLPAVIVPKCEMMDIDEMEPMDQSEPPRGITRRNLRSADRKNRDVPGPSTGECTRTSIAPNRCEMSFTEVQTLTSARTPVAAPTLTLSTPVNPVSSAEMLRVMPPRVGRRPRASRSGDNDSPLLFNAYDTPQQGINDESPTPSDSPESPNAHLYGATPGNPTSTSGGPSSNTRSHRH”: “not soluble”. With “AAGLPQFGSASALSTSPLASVALSAAAAAAAGKQIEGPEGCNLFIYHLPQEFTDTDLASTFLPFGNVISAKVFIDKQTSLSKCFGFVSFDNPDSAQVAIKAMNGFQVGTKRLKVQLKK” the entry was “soluble”. With “MDRNGMSDPYVKVYVLPERKQKFETRIIRNTLNPTYNETFQFSIPFNELHSKTLMLVVYDYDRLSKDDKMGQLSVPLESIDFGITTDIERPLQKPEKDDEKECRLGDICFSTRYRPATGTVTLTIMEARNLKKMDVGGSSDPYVKIYLHHGRKLLSKKKTSRKYKTLNPYYNESFQFKIEPHMIEKVHLIVSVWDYDKMSKNDFIGEVTLGSKHLNLPQITHACSEQWAEMMTSRRPVVQWHTLQERMEKEKKKDDD”, the “soluble on expression in E. coli” value is “not soluble”.

Regarding “MAFISSGYNPEKPMANRITDIGPRKFDEFFPPVIAKNFGSWLYHEILEPGVLMHVAESGDKVYTVRVGAARLMSITHIREMCDIADKYCGGHLRFTTRNNVEFMVADEASLKALKEDLASRKFDGGSLKFPIGGTGAGVSNIVHTQGWVHCHTPATDASGPVKAIMDEVFEDFQSMRLPAPVRISLACCINMCGAVHCSDIGVVGIHRKPPMIDHEWTDQLCEIPLAVASCPTAAVRPTKLEIGDKKVNTIAIKNERCMYCGNCYTMCPALPISDGEGDGVVIMVGGKVSNRISMPKFSKVVVAYIPNEPPRWPSLTKTIKHIIEVYSANAYKYERLGEWAERIGWERFFSLTGLEFSHHLIDDFRDPAYYTWRQSTQFKFLEHHHHHH”, the “soluble on expression in E. coli” value is recorded as “not soluble”. The same measure for “SGGVTSSIAAKFAFFPPTPPSYEVIADDSCGGRLYIPEIPRRDDVDILKLRTRCGNEIVAVYVKHSKANGTLLYSHGNAADLGQMFELFVELSNRLRVNLMGYDYSGYGQSTGQASECNTYADIEASYKCLKEKYGVEDDQLIVYGQSVGSGPTVDLASRTPNLRGVVLQCPILSGMRVLYPVKCTYWFDIYKNIDKIGSVTCPVLVIHGTADEVVDWSHGKRLWELSKEKYEPLWISGGGHCDLELYPDFIRHLKKFVVSLGNKQAEQAPT”: “soluble”; for “MLNFQLVLLIGDFNLPHRAANISPKFRKLLVPNKMQHVLCTGNLCSRETFDYLRTLSSDVHIVRGEFDDETLKYPDTKVVTVGQFRIGVCHGHQIIPWGDQRMLELLARQLDVDILVTGNTYECSAVEKNGRFFVDPGSATGSFSVTKTEPTTPSFALLDVQADNVVTYLYRLIDDAVKVDRIIYKKSKTT”: “not soluble”. The same measure for “MDKISNIYNFDDPPPDKLSLELFIIEKKIGKGQFSEVFRAQCTWVDLHVALKKIQVFEMVDQKARQDCLKEIDLLKQLNHVNVIRYYASFIDNNQLNIVLELAEAGDMSRMIKHFKKGGRLIPEKTIWKYFVQLARALAHMHSKRIMHRDIKPANVFITGNGIVKLGDLGLGRFFSSKTTAAHSLVGTPYYMSPERIQESGYNFKSDLWSTGCLLYEMAALQSPFYGDKMNLYSLCKKIENCEYPPLPADIYSTQLRDLVSRCILPEASKRPETSEVLQVAEHMNNYFSPSGDQSTTPSTQF”: “not soluble”.

For the sequence “STDFKLGIVRLGRVAGKTKYTLIDEQDIPLVESYSFEARMEVDADGNGAKIFAYAFDKNRGRGSGRLLHELLWERHRGGVAPGFQVVHLNAVTVDNRLDNLQLVPWGWRPKAEETSSKQREQSLYWLAIQQLPTDPIEEQFPVLNVTRYYNANGDVVEEEENSCTYYECHYPPCTVIEKQLREFNICGRCQVARYCGSQCQQKDWPAHKKHCRERKRPFQHELEPER”, the “soluble on expression in E. coli” value is listed as “soluble”. The same measure for “MISVMQQMMNNSNMPPPFVKSSDSHETHDESPTSPFIKRSDSPATTSSAAAAAMQHNFWSTRAAQLQQSVSGSSGVSSGSSSSASNNLSRTQADNHSERGSDTASSPQVAPLPTSSGMSMPAAAAAGMYPFNAGRFPTEFNMMVNQSMYNDFYSNSLAASSWPYSYPQQYPFANYSMPSLDGNLNDGGQLEWTSSSHAMRKKRKPYTKAQTLELEKEFLYNTYVSKQKRWELAKYLHLTERQVKIWFQNRRMKDKKQKQRTSGDPTGMLMPPGLD”: “not soluble”; for “MGSDKIHHHHHHLVSLEQEVQEKYSQIQNQLQRRADLIPNLVETVKGYAAHEKEILEEIANARAKLIGAKTPQESAQADAELSSALSRLLAIAENYPNLKADANFRQLMDELAGTENRIAVARRDYNEAVKKYNTAIKKFPGVIFAKMFGFEEKQYFEAKPGAEEVPEVKF”: “soluble”; for “PALVVDDTLTIQPAVSFSEWQAGFRAQALKAGIRADVFDLAFAGVTPDMSVVKADRSQPEFSRPVWEYLDGAISAVRVRKGQALLSQYADDLQKIEQQYGVDRQALVAVWGMESNFGSFQGSQSVIRSLATLAYEGRRPGFAQSQLLAALEIIQHGDITPDKMLGSWAGAMGQTQFIPTTYNTHAVDFDGDGRRDIWNTPADALASTAHYLQSSGWQRGQPWGFEVVLGSGFDYSLADSTTRKSLAEWQQLGLKQPDGSAIPVAASQQQAVLLLPAGYRGPAFLVLDNFRAILKYNNSTSYALAISLLSDRFKGAGYVVGAWPRADTPLSRSERIELQSLLSARQYDAGAPDGIIGANTRKAIRSAQQSFGWPADGYPTHELLEALRKPVGQ”: “soluble”. The same measure for “SALPTPHEIRNHLDDYVIGQEQAKKVLAVAVYNHYKRLRNGDTSNGVELGKSNILLIGPTGSGKTLLAETLARLLDVPFTMADATTLTEAGYVGEDVENIIQKLLQKCDYDVQKAQRGIVYIDQIDKISRKSDNPSITRDVSGEGVQQALLKLIEGTVAAVPPQGGRKHPQQEFLQVDTSKILFICGGAFAGLDKVISHRVETGSGIGFGATVKAKSDKASEGELLAQVEPEDLIKFGLIPEFIGRLPVVATLNELSEEALIQILKEPKNALTKQYQALFNLEGVDLEFRDEALDAIAKKAMARKTGARGLRSIVEAALLDTMYDLPSMEDVEKVVIDESVIDGQSEPLLIYGKPEAQQASGE”: “soluble”; for “MAETLPGSGDSGPGTASLGPGVAETGTRRLSELRVIDLRAELKKRNLDTGGNKSVLMERLKKAVKEEGQDPDEIGIELEATSKKSAKRCVKGLKMEEEGTEDNGLEDDSRDGQEDMEASLENLQNMGMMDMSVLDETEVANSSAPDFGEDGTDGLLDSFCDSKEYVAAQLRQLPAQPPEHAVDGEGFKNTLETSSLNFKVTPDIEESLLEPENEKILDILGETCKSEPVKEESSELEQPFAQDTSSVGPDRKLAEEEDLFDSAHPEEGDLDLASESTAHAQSSKADSLLAVVKREPAEQPGDGERTDCEPVGLEPAVEQSSAASELAEASSEELAEAPTEAPSPEARDSKEDGRKFDFDACNEVPPAPKESSTSEGADQKMSSFKEEKDIKPIIKDEKGRVGSGSGRNLWVSGLSSTTRATDLKNLFSKYGKVVGAKVVTNARSPGARCYGFVTMSTSDEATKCISHLHRTELHGRMISVEKAKNEPAGKKLSDRKECEVKKEKLSSVDRHHSVEIKIEKTVIKKEEM”: “not soluble”; for “DFSIVGYSQDDLTSTERLIQLFNSWMLNHNKFYENVDEKLYRFEIFKDNLNYIDETNKKNNSYWLGLNEFADLSNDEFNEKYVGSLIDATIEQSYDEEFINEDIVNLPENVDWRKKGAVTPVRHQGSCGSCWAFSAVATVEGINKIRTGKLVELSEQELVDCERRSHGCKGGYPPYALEYVAKNGIHLRSKYPYKAKQGTCRAKQVGGPIVKTSGVGRVQPNNEGNLLNAIAKQPVSVVVESKGRPFQLYKGGIFEGPCGTKVDGAVTAVGYGKSGGKGYILIKNSWGTAWGEKGYIRIKRAPGNSPGVCGLYKSSYYPTKN”: “soluble”. With “MPDYRSKTSTQGRNMAGARALWRATGMKDEDFKKPIIAIANSFTQFVPGHVHLKDLGQLVAREIERAGGVAKEFNTIAVDDGIAMGHDGMLYSLPSREIIADAVEYMVNAHCADAIVCISNCDKITPGMLMAALRLNIPVIFVSGGPMEAGKTKLASHGLDLVDAMVIAADSTASDEKVAEYERSACPTCGSCSGMFTANSMNCLTEALGLALPGNGSTLATHSDREQLFLTAGRTIVELCKRYYGENDESVLPRSIANFKAFENAMMLDIAMGGSTNTILHLLAAAQEGEVAFDLRDIDRLSRKVPQLCKVAPNIQKYHMEDVHRAGGIFSILGSLARGGLLHTDLPTVHSRSMEEAIAKWDITQTDDEAVHTFFKAGPAGIPTQTAFSQSTRWETLDDDRENGCIRSFEHAYSQEGGLAVLYGNIALDGCVVKTAGVDESIHVFEGTAKIFESQDSAVRGILADEVKAGDIVIIRYEGPKGGPGMQEMLYPTSYLKSKGLGKACALLTDGRFSGGTSGLSIGHASPEAAAGGAIGLVRDGDKVLIDIPNRSINLLVSDEELAQRRVEQDKKGWKPAEVRPRKVTTALKAYALLATSADKGAVRNKAMLEGL” the entry was “not soluble”; with “PTGGGKTLSSTAFALNHAMHHGKQRVIYVIPYTSILEQTAEIFRKIFGDENVIEHHSNLDPDKEDSRSRLATENWDAPIIVTTNVQFFESLFAARTSRCRKLHNIVNSVVVLDEAQLLPPEFLAPILHVMQDLSQNYKVSFVLSTATQPAFSPRPKFSGLRGVQELMD”, “not soluble”; with “MKEFKVTTGPLPGSEKIYVEGERFPFLRVPMRRIRMSDTILENGEREKNEDVVVYDTSGPYTDTSYEVNLHRGVPKIREQWIEDRGDTVRLEGLSSEYGRIRQSDASLEKLRYEHVCTRPRAAKDGCATQLYYARQGIVTPEMEFVAIRENQLIDQVRTRYRAEEGEPLGAVIPRKITPEFVRDEIAAGRAILPANINHPESEPMIIGRNFLVKINANIGNSPISSTIEEEVEKAVWAIRWGADTVMDLSTGDHIHETREWIIRNSPVPIGTVPLYQTLEKVQGDVTKLNWEIFRDTLIEQAEQGVDYFTIHAGLRWHHVPLTLRRLTGIVSRGGSIIANWCTTHKRESFIYEHFEEICQILARYDVAISLGDGLRPGCIHDANDAAQIAELKTLGELTEIAWKYNVQTIIEGPGHVPMHKIRENMEIQLEACHGAPFYTLGPLVSDVASGYDHITSAIGAAQIGWFGTAMLCYVTQKEHLGLPNREDVREGVVTYRLAAHAADLAKGHPTAYWRDYMMSKARFEFRWKDQFHLSLDPEKAIQFHDATLPDEGHKEAHFCSMCGEHFCSMRANKNFRKLLNEEAVSK”, “not soluble”.
